PubChem BioAssay AID540256 (National Center for Advancing Translational Sciences (NCATS), 2011)
Out of some 300,000 compounds screened, about 3,700 (1.2%) were called active. Inconclusive results, whose numbers are uncertain, are shown with a selection of clear calls. Calls follow the shape of the full dose curve; tested in HEK293 cells. Potencies of inconclusive entries are doubtful fits and often do not repeat.

Assay: qHTS for Inhibitors of binding or entry into cells for Lassa Virus; also: nearly all actives have a fitted effect of over 50% in size
Details: Lassa virus pseudotype entry inhibition, cell reporter; activity change, negative = inhibition: at 37.9 µM (top of the series) unless noted
% is scaled to controls: 0 for no effect and ±100 for the full control effect; potency is read from the fitted curve at half-maximal effect.

| SMILES | Potency | activity change, negative = inhibition |
| --- | --- | --- |
| Cc1ccc(S(=O)(=O)N2CCN(C(C)C(=O)N3CCCc4ccccc43)CC2)cc1 (stereo not drawn) | inconclusive: 15.8 µM [inhibitor, partial curve, poor fit] | – |
| CCOc1ccc(NC(=O)c2ccc3c(SCC(=O)O)c4c(nc3c2)CCC4)cc1 | – | inactive: -1.04% [at 46.1 µM] |
| COc1ccc(OC)c(C2c3c(-c4ccc(Br)cc4)n[nH]c3C(=O)N2c2ccc(Cl)cc2)c1 (stereo not drawn) | inconclusive: 12.6 µM [inhibitor, partial curve, poor fit] | – |
| CC(=O)N(C)c1ccc(NC(=O)Nc2ccc(C)c(C)c2)cc1 | – | inactive: -17.3% [at 46.1 µM] |
| COc1cc2cc(C(c3nnnn3C3CCCC3)N3CCCCC3)c(=O)[nH]c2cc1OC (stereo not drawn) | inconclusive: 2.31 µM [inhibitor, partial curve, poor fit] | – |
| COc1ccc(C(=O)/C=C/c2ccccc2F)c(OC(=O)c2ccc([N+](=O)[O-])cc2)c1 | inconclusive: 2.24 µM [inhibitor, partial curve, poor fit] | – |
| COc1ccc(C2=C(C(C)=O)Sc3nnc(-c4ccc(C)cc4)n3N2C(C)=O)cc1OC | inconclusive: 2.24 µM [inhibitor, partial curve, poor fit] | – |
| CCOC(=O)c1cc(-c2ccccc2)nc2c(O)cccc12 | inconclusive: 12.6 µM [inhibitor, single point] | – |
| CN=c1scc(C)n1/N=C/c1ccc(O)cc1 | inconclusive: 35.5 µM [inhibitor, single point] | – |
| CC(=O)NC(c1ccccc1)c1cc([N+](=O)[O-])c2cccnc2c1O (stereo not drawn) | inconclusive: 35.5 µM [inhibitor, single point] | – |
| O=C(N/C=C/c1ccco1)NCc1ccccc1 | inconclusive: 3.16 µM [activator, partial curve, poor fit] | – |
| Cc1sc2ncn(CC(=O)N3CCN(c4ccccn4)CC3)c(=O)c2c1S(=O)(=O)N1CCC(C)CC1 | inconclusive: 3.55 µM [inhibitor, partial curve, poor fit] | – |
| COc1cc(-c2c(C#N)c(N)nc3c2c(C)nn3-c2ccc(C)c(C)c2)cc(OC)c1OC | inconclusive: 0.231 µM [inhibitor, partial curve, poor fit] | – |
| COC(=O)CCC(=O)Nc1cccc2ccccc12 | inconclusive: 14.1 µM [activator, single point] | – |
| C(=C\c1ccccc1)/CN1CCN(Cc2ccc3c(c2)OCO3)CC1 | – | inactive: 3.09% |
| CC1Cc2ccccc2N1C(=O)COC(=O)c1c2c(nc3ccccc13)CCCCC2 (stereo not drawn) | inconclusive: 12.6 µM [inhibitor, partial curve, poor fit] | – |
| CC1CCN(c2cc3c(cc2F)c(=O)c(S(=O)(=O)c2cccc(Cl)c2)cn3Cc2ccccc2)CC1 | – | inactive: 10.8% [at 46.1 µM] |
| COc1ccccc1CNS(=O)(=O)c1ccc(-c2cc(C(F)(F)F)on2)s1 | – | inactive: 2.91% [at 46.1 µM] |
| Cc1ccc(S(=O)(=O)N(Cc2ccccc2)Cc2ccco2)cc1 | inconclusive: 35.5 µM [inhibitor, partial curve, poor fit] | – |
| O=C(NC12CC3CC(CC(C3)C1)C2)c1ccc(-c2cccc(Cl)c2)o1 | – | inactive: -21.3% |
| Clc1c(CSc2nc3ccccc3o2)nc2sccn12 | inconclusive: 32.6 µM [inhibitor, single point] | – |
| Cc1cccc(/C(N)=N/OC(=O)c2ccncc2)c1 | inconclusive: 35.5 µM [inhibitor, single point] | – |
| Cc1[nH]c2ccccc2c1C(c1ccccn1)N1CCC(C)CC1 (stereo not drawn) | inconclusive: 35.5 µM [inhibitor, single point] | – |

| SMILES | Potency | activity change, negative = inhibition |
| --- | --- | --- |
| CCN(CC)C(=O)C1CC(=O)OC1(C)C (stereo not drawn) | – | inactive: -0.1% |
| COc1ccc(/C=N/Nc2nc(-c3cccc(S(=O)(=O)N4CCCC4)c3)cs2)cc1OC | – | inactive: -8.98% |
| OCCOc1ccc(C2=NCCO2)cc1 | inconclusive: 23.1 µM [activator, single point] | – |
| CCOC(=O)c1cc(CC)sc1N1C(=O)CC(Sc2ncccc2C(=O)O)C1=O (stereo not drawn) | – | inactive: 7.79% [at 46.1 µM] |
| CCC(C(=O)NCc1ccco1)N(C(=O)CNS(=O)(=O)c1ccc(C)cc1)c1ccccc1OC (stereo not drawn) | – | inactive: -27.5% |
| CC(C)CCNC(=O)c1cccc(S(=O)(=O)N2CCc3ccccc32)c1 | active: 3.98 µM | – |
| COc1ccc(C(=O)NC(=S)N2CCCCC2)cc1 | inconclusive: 25.9 µM [activator, single point] | – |
| CCn1c(=O)c(C(=O)CN(C)Cc2ccc(F)cc2)c(N)n(Cc2ccccc2)c1=O | – | inactive: -33.6% |
| CCOc1ccccc1C(=O)NC(C)c1ccc(-n2ccnc2)cc1 (stereo not drawn) | – | inactive: -2.21% |
| COc1cc2c(cc1OC)CN(Cc1cc(=O)n3c(-c4ccccc4)csc3n1)CC2 | inconclusive: 1.26 µM [activator, single point] | – |
| COc1ccc(C(=O)C2CC2c2ccc3c(c2)OCO3)cc1 (stereo not drawn) | inconclusive: 35.5 µM [inhibitor, single point] | – |
| Cc1cc2c(c(=O)n1Cc1cccnc1)C(c1ccccc1)C(C#N)=C(N)O2 (stereo not drawn) | – | inactive: -7.28% |
| O=C(Nc1nc2ccc(F)cc2s1)C1CCCO1 (stereo not drawn) | inconclusive: 1.3 µM [activator, full curve, poor fit] | – |
| O=c1[nH]c2cc3c(cc2cc1C(c1nnnn1Cc1ccccc1)N1CCN2CCCC2C1)OCCO3 (stereo not drawn) | – | inactive: 5.78% |
| O=C(Cc1ccc(NC(=O)N2CCCCc3ccccc32)cc1)NCc1ccccc1Br | inconclusive: 35.5 µM [inhibitor, single point] | – |
| Cn1cc(C(=O)c2ccc(Cl)cc2Cl)cc1C(=O)N/N=C(\N)COc1ccccc1 | inconclusive: 35.5 µM [inhibitor, single point] | – |
| Cc1cccc(CCNC(=O)C2CCC(CNS(=O)(=O)c3c(C)cc(C)cc3C)CC2)c1 (stereo not drawn) | inconclusive: 12.6 µM [inhibitor, partial curve, poor fit] | – |
| O=C(CSc1nnc(-c2ccccn2)o1)Nc1ccccc1 | – | inactive: -12.9% |
| Cc1ccc(C(=O)c2cc([N+](=O)[O-])ccc2N2CCCCC2)cc1C | inconclusive: 3.98 µM [inhibitor, partial curve, poor fit] | – |
| CCc1ccc(NC(=O)CSc2nc3n[nH]c(C)c3c(=N)n2-c2ccc(C)cc2)cc1 | – | inactive: -2.71% [at 46.1 µM] |
| CCc1ccc(C(=O)COC(=O)CNC(=O)c2cccs2)cc1 | inconclusive: 35.5 µM [activator, single point] | – |
| Cn1nnnc1SCCNCc1cc(Cl)ccc1OCc1ccccc1 | inconclusive: 29.1 µM [inhibitor, single point] | – |
| CN(C)c1nnnn1-c1ccc(Oc2ccccc2)cc1 | – | inactive: -21.7% |

| SMILES | Potency | activity change, negative = inhibition |
| --- | --- | --- |
| O=C(CSCc1ccc(Br)cc1)N=Nc1c(O)[nH]c2ccccc12 | inconclusive: 35.5 µM [inhibitor, partial curve, poor fit] | – |
| CCSc1nsc(NC(=O)Nc2cccc(C(C)=O)c2)n1 | inconclusive: 17.8 µM [inhibitor, single point] | – |
| COc1ccccc1CNc1ccc(-c2nc(-c3ccccn3)no2)cc1[N+](=O)[O-] | – | inactive: 24.9% [at 46.1 µM] |
| Cc1ccc(NCC(=O)N/N=C/c2c[nH]c3ccccc23)cc1 | inconclusive: 4.47 µM [inhibitor, full curve, poor fit] | – |
| COC(=O)[C@@]1(Cc2ccc(OC)cc2)[C@H]2c3cc(C(=O)N4CCCC4)n(Cc4ccc(C)o4)c3C[C@H]2CN1C(=O)c1ccccc1 | inconclusive: 29.1 µM [inhibitor, partial curve, poor fit] | – |
| COc1ccc(CCNC(=O)CCCn2c(=O)c3ccccc3n(CC(=O)Nc3cccc(C)c3)c2=O)cc1OC | – | inactive: 1.53% [at 46.1 µM] |
| Cc1ccc2[nH]c(=O)c(CN(CCN3CCOCC3)C(=O)Nc3ccc(F)cc3)cc2c1 | – | inactive: -0.696% |
| CCCCn1c(=O)c(C(=O)c2ccccc2)nc2ccccc21 | – | inactive: 4.78% |
| CC(=O)Nc1cc2c(c(Cl)c1Cl)-c1ccccc1C2=O | – | inactive: 15% |
| CCOc1ccccc1N1CCN(S(=O)(=O)c2cc(C)ccc2OC)CC1 | inconclusive: 7.08 µM [inhibitor, full curve, poor fit] | – |
| COC(=O)/C=C\C(C#N)(C#N)N=Cc1ccc(OC)cc1 | inconclusive: 7.94 µM [inhibitor, partial curve, poor fit] | – |
| CCOc1cc(C(=O)N(Cc2nc(-c3ccc(C)cc3)no2)C(C)C)cc(OCC)c1OCC | – | inactive: 23.9% [at 46.1 µM] |
| Cc1[nH]c2ccccc2c1/C=N/NC(=O)CNC(=O)COc1ccccc1 | inconclusive: 10 µM [inhibitor, partial curve, poor fit] | – |
| CC(=O)c1cccc(NC(=O)c2ccc(S(=O)(=O)N3CCCCC3)cc2)c1 | – | inactive: -0.613% |
| Cc1ccc(C)c(N2CCN(C(=O)c3ccc(N4CCOCC4)c([N+](=O)[O-])c3)CC2)c1 | inconclusive: 35.5 µM [inhibitor, single point] | – |
| CCOc1ccc(CC(=O)C2=C(N3CCOCC3)CC(C)(C)CC2=O)cc1OCC | – | inactive: -5.28% |
| COc1ccccc1OCc1nc2ccccc2[nH]1 | – | inactive: 12.2% |
| COc1ccc(NC(=S)N/N=C2\CC(C)(C)Oc3ccc(OC)cc32)cc1 | inconclusive: 0.206 µM [inhibitor, full curve, poor fit] | – |
| CC(C)(C)C(=O)Nc1ccc(-c2nc3ccccc3s2)cc1 | inconclusive: 0.891 µM [inhibitor, full curve, poor fit] | – |
| O=C(Oc1c(CN2CCOCC2)cc(Cl)c2cccnc12)c1ccc(F)cc1 | inconclusive: 29.1 µM [inhibitor, single point] | – |
| CCC(C)NCCOCCOc1cc(C)c(Cl)c(C)c1 (stereo not drawn) | inconclusive: 31.6 µM [inhibitor, single point] | – |
| COc1ccccc1CNC(=O)CSc1nn2c(=O)c(C(C)(C)C)nnc2s1 | inconclusive: 1.64 µM [inhibitor, partial curve] | – |

Two entries drawn at random from those above:

| SMILES | Potency | activity change, negative = inhibition |
| --- | --- | --- |
| Cc1ccc2[nH]c(=O)c(CN(CCN3CCOCC3)C(=O)Nc3ccc(F)cc3)cc2c1 | – | inactive: -0.696% |
| COc1ccc(CCNC(=O)CCCn2c(=O)c3ccccc3n(CC(=O)Nc3cccc(C)c3)c2=O)cc1OC | – | inactive: 1.53% [at 46.1 µM] |

For reference, part of the list above:

| SMILES | Potency | activity change, negative = inhibition |
| --- | --- | --- |
| CC1CCN(c2cc3c(cc2F)c(=O)c(S(=O)(=O)c2cccc(Cl)c2)cn3Cc2ccccc2)CC1 | – | inactive: 10.8% [at 46.1 µM] |
| COc1ccccc1CNS(=O)(=O)c1ccc(-c2cc(C(F)(F)F)on2)s1 | – | inactive: 2.91% [at 46.1 µM] |
